Test results taken from patent publication US20110118181A1.
These are yes or no findings as the source states them, for the method shown. Some results given as binding are weak or reduced against the parent protein; the word gives no strength.

Chains of the proteins cited; added tags and fusions are not shown. Residues count along the entry.
UniProt Q8NBP7, residues 31-692: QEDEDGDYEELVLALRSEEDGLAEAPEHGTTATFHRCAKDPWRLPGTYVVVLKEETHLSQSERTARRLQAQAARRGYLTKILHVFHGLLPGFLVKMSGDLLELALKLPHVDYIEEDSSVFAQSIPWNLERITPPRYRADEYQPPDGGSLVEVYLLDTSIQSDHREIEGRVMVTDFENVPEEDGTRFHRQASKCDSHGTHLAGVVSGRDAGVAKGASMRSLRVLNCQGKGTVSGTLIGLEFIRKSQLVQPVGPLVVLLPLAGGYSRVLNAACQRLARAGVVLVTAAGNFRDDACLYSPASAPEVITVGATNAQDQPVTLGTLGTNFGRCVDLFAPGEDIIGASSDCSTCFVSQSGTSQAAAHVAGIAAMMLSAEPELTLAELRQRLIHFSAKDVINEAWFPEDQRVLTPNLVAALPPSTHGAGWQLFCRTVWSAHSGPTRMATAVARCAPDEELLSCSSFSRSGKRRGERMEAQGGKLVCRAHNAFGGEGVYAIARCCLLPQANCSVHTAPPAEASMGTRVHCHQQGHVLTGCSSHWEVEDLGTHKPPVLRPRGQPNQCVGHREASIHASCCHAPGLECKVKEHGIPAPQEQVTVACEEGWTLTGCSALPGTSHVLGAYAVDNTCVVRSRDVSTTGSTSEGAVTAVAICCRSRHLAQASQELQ

Molecular target: purified biotin-conjugated PCSK9 (UniProt Q8NBP7)
Test: AlphaScreen competition of biotin-PCSK9 binding to His6-LDLR ectodomain

binding: binds
B1: AnxA2-derived peptide extending from amino acid 49 to 97 (peptide)
peptide: KGVDEVTIVNILTNRSNAQRQDIAFAYQRRTKKELASALKSALSGHLET
